{"source": "patent US9694061B2", "about": "“Fully human antibodies to high molecular weight-melanoma associated antigen and uses thereof” (University of Pittsburgh—Of the Commonwealth System of …, priority 2008, dated 2017)", "key": {"[1]": {"target": "scFv C21", "test": "Kinetic binding studies by surface plasmon resonance (BIACORE 3000)", "design": "species or system human", "description": "Binding experiments were performed with the surface plasmon resonance based biosensor instrument BIACORE™ 3000 (Biacore AB, Uppsala, Sweden), at 25° C. Immobilization of scFv C21 in the sensor surface was performed following the standard amine coupling procedure according to the manufacturer's instructions. Briefly, 35 μl of a solution containing 0.2 M N-ethyl-N′-(dimethylaminopropyl) carbodiimide (EDC) and 0.05M N-hydroxysuccinimide (NHS), were injected at a flow rate of 5 μl/min to activate carboxyl groups on the sensor chip surface. scFv C21 ([…] of 10 mM NaOAc buffer, pH 5.0) was flowed over the chip surface at a flow rate of 20 μl/min until the desired bound protein level was reached. Unreacted scFv C21 was washed out and unreacted activated groups were blocked by the injection of 35 μl of 1 M ethanolamine at 5 μl/min. The final immobilization response of scFv C21 was 3,000 RU. A reference surface was generated simultaneously under the same conditions but without scFv C21 injection and used as a blank to correct for instrument and buffer artifacts. Peptides were injected at variable concentrations at different flow rates from 20-100 μl/min. Peptides binding to scFv C21 immobilized on the chip was monitored in real time.\nTo exclude that binding constants obtained from SPR were not affected by either rebinding of the analyte or mass transport effects, studies were repeated at different flow rates (20-100 μl/min). Kinetic constants obtained at both flow rates remained unchanged.\nTo evaluate binding, peptides P1C21 and P3C21 were injected at concentrations ranging from 1 to 32 μM. The resulting sensograms were used for estimation of the kinetic constants (kon and koff) by global fitting to the 1:1 Langmurian interaction model. The binding constant (Kd) was calculated for each peptide as a koff/kon ratio."}, "[2]": {"test_system": "HMW-MAA^+ melanoma cells Colo38", "test": "Immunization of BALB/c mice with peptide-KLH conjugate, HMW-MAA-specific antibodies in sera", "format": "in vivo", "description": "FIG. 9. Development of antibodies with selective reactivity with HMW-MAA^+ cells Colo38 in BALB/c mice immunized with peptide P1C21 and boosted with Colo 38 cells. Mice were immunized with KLH-conjugated peptide P1C21 ( ? ) (50 μg/injection) on day 0, 21, 42, 63, 84 and 105, and with HMW-MAA^+ Colo38 melanoma cells (5×10^5 cells/injection) on day 132. Sera were harvested one week before the first immunization, and one week after each immunization. Two-fold dilutions of sera (100 μl/well) were incubated with HMW-MAA^+ Colo38 melanoma cells (1×10^5/well). Following an additional incubation with HRP-conjugated goat anti-mouse IgG antibodies, the reaction was developed using TMB substrate. O.D. was measured at 450 nm. Results are expressed as the mean±SD of the highest dilution of sera giving 50% of the maximal binding to HMW-MAA^+ cells. Sera from mice immunized with peptide MB1194-208 were used as controls. *p<0.05.\nFIG. 10. Flow cytometry analysis of HMW-MAA^+ M14#5/HMW-MAA melanoma cells stained with antibodies elicited by peptide P1C21 and HMW-MAA^+ cells Colo38 in BALB/c mice. M14#5/HMW-MAA transfectants and parental HMW-MAA^− M14#5 cells were incubated on ice with 100 μl of sera (1:60 dilution) from mice immunized with peptide P1C21 (top panel), and with sera from mice immunized with peptide P1C21 or control peptide MB1194-208 and boosted with HMW-MAA^+ cells Colo38 (middle panel). Following washing, cells were incubated on ice with RPE-labeled F(ab′)2 fragments of goat anti-mouse Ig antibodies. Cells were then analyzed with a FACScan™ flow cytometry. Results are expressed as fluorescence intensity (empty histogram). Preimmune sera (grey histogram), sera from mice immunized with control peptide MB1194-208 (top panel), sera from mice immunized with peptide MB1194-208 and boosted with HMW-MAA^+ melanoma cells Colo38 (middle panel) and sera from mice immunized with peptide P1C21 or peptide MB1194-208 and boosted with HMW-MAA^− lymphoid cells LG2 (bottom panel) were used as controls.\nFIG. 11. Immunochemical characterization of the HMW-MAA specificity of sera from mice immunized with peptide P1C21 and boosted with HMW-MAA^+ cells Colo38. A 1% Triton X-100 extract of ^125I-labeled Colo38 melanoma cells was immunoprecipitated with sera from mice sequentially immunized with peptide P1C21 and with HMW-MAA^+ cells Colo38 (lane B). Antigens were eluted from the immunoadsorbent, and analyzed by SDS-PAGE in an 8% polyacrylamide gel. Gels were fixed, dried and autoradiographed for 2 days at −80° C. HMW-MAA-specific mouse mAb 763.74 (lane A), sera from mice immunized with peptide P1C21 and boosted with HMW-MAA^− lymphoid cells LG2 (lane C) and sera from mice immunized with control peptide MB1194-208 and boosted with HMW-MAA^+ Colo38 melanoma cells lane (lane D) were used as controls.\nThe ELISA to test the reactivity of soluble scFv antibodies with synthetic peptides and melanoma cells and of mouse immune sera with melanoma cells and with peptides was performed as described (Desai et al., Cancer Res 58:2417-2425, 1998; Desai et al., J Immunol 165:3275-3283, 2000; Matsui et al., J Immunol 139:2088-2095, 1987). Results are expressed as absorbance of optical density (O.D.) at 450 nm. The competition assay to map the antigenic determinant recognized by scFv C21 was performed by mixing biotinylated scFv C21 (0.25 μg/well) with two-fold dilutions of mouse mAb or scFv PP or by mixing biotinylated mAb (at an optimal amount giving absorbance, measured at 450 nm of 1.0) with two fold dilutions of scFv PP. The mixture (100 l/well) was incubated for 1 h at 4° C. with HMW-MAA^+ cells (2×10^5/501 of RPMI 1640 medium) in a 96-well tissue culture plate (Falcon 3072, Becton Dickinson, Franklin Lakes, N.J.). Binding of biotinylated scFv antibodies and biotinylated mAb to target cells was measured by sequential incubation with SA-HRP and substrate as described (Noronha et al., J Immunol 161:2968-2976, 1998). […]"}, "[3]": {"test_system": "scFv C21", "test": "ELISA of synthetic peptides immobilized on plate with scFv C21", "format": "binding, human", "settings": "peptide immobilized by 0.25% glutaraldehyde PBS", "description": "FIG. 7. Reactivity in ELISA of scFv C21 with synthetic peptides derived from those isolated by panning the phage display peptide library X15 with scFv C21. Ninety-six well plates were coated for 2 h at 37° C. with synthetic peptides P1C21 ( ? ), P2C21 (125 μM) ( ? ), and P3C21 (125 μM) ( ? ), in 0.25% glutaradehyde-PBS. Following blocking with PBS-1% BSA, wells were incubated for 2 h at room temperature with 50 μl of PP scFv C21 at and 50 μl of biotinylated mAb 9E10 (2.5 μg/ml 1% BSA-PBS). Binding of scFv antibody to ? peptides was detected by addition of SA-HRP. Results are expressed as absorbance at […]. […]\n(§1) The ELISA to test the reactivity of soluble scFv antibodies with synthetic peptides and melanoma cells and of mouse immune sera with melanoma cells and with peptides was performed as described (Desai et al., Cancer Res 58:2417-2425, 1998; Desai et al., J Immunol 165:3275-3283, 2000; Matsui et al., J Immunol 139:2088-2095, 1987). Results are expressed as absorbance of optical density (O.D.) at 450 nm. The competition assay to map the antigenic determinant recognized by scFv C21 was performed by mixing biotinylated scFv C21 (0.25 μg/well) with two-fold dilutions of mouse mAb or scFv PP or by mixing biotinylated mAb (at an optimal amount giving absorbance, measured at 450 nm of 1.0) with two fold dilutions of scFv PP. […]"}, "[4]": {"test_system": "HMW-MAA^+ cells Colo38", "test": "Delayed-type hypersensitivity (DTH) reaction in immunized mice", "format": "in vivo, BALB/c mice", "description": "FIG. 12. DTH reaction to HMW-MAA^+ melanoma cells Colo38 in BALB/c mice immunized with peptide P1C21. Irradiated (20K rads) HMW-MAA^+ cells Colo38 (5×10^5 cells/mouse) ( ? ) and HMW-MAA^− LG2 cells (5×10^5 cells/mouse) (□) were injected on day 132 into the right and left hind footpad, respectively, of BALB/c mice, which had been immunized six times with peptide P1C21 on days 0, 21, 42, 63, 84 and 105. Amount of swelling induced by the injected cells was measured and calculated by subtracting the thickness of the footpad measured at time 0 h from that measured 24 h after the injection of cells. Mice immunized with control peptide MB1194-208 using the same schedule were injected at the same time point with either Colo38 or LG2 cells, and used as controls. *p<0.05.\nMice which had been immunized six times with peptide P1C21 or control peptide were injected on day 132 s.c. into the right and left hind footpads with irradiated HMW-MAA^+ cells Colo38 (5×10^5 cells/injection/) and HMW-MAA^− cells LG2 (5×10^5 cells/injection/), respectively. The thickness of each footpad was measured and calculated at the indicated times as previously described (Luo et al., J Immunol 174:7104-7110, 2005, herein incorporated by reference)."}, "[5]": {"test_system": "scFv C21", "test": "Inhibition by synthetic peptides of scFv C21 binding to Colo38 cells", "design": "species or system human", "settings": "soluble peptide, FIG. 8", "description": "FIG. 8. Inhibition of the reactivity of scFv C21 with HMW-MAA^+ cells Colo38 by synthetic peptides P1C21 and P3C21 and by modified peptide P3C21. Varying concentrations of synthetic peptides P1C21 (-●-), P3C21(-▴-), P3A5 (-⋄-), P3V7 ( ? ) and P3S10 ( ? ) were incubated for 2 h at 4° C. with 50 μl of PP scFv (1:1600 dilution in 1% BSA-PBS) and 50 μl of biotinylated mAb 9E10 (2.5 μg/ml 1% BSA-PBS). The mixture was then transferred to wells containing cells Colo38. Binding of scFvC21 was detected using SA-HRP (top panel). Results are expressed as % inhibition. […]\nas §1"}, "[6]": {"settings": "scFv C21 immobilized, 25° C., peptide 1 to 32 μM, 1:1 Langmurian model"}}, "note": "Part of at least one peptide drawing is inferred or uncertain, most often the ends. Where a SMILES comes first, the peptide text is derived from it."}
{"smiles": "CC(C)C[C@H](NC(=O)[C@@H]1CCCN1C(=O)[C@H](CCCNC(=N)N)NC(=O)[C@H](CCCCN)NC(=O)[C@H](CC(=O)O)NC(=O)[C@@H]1CSSC[C@H](NC(=O)[C@H](Cc2ccc(O)cc2)NC(=O)[C@H](Cc2c[nH]c3ccccc23)NC(=O)[C@H](CO)NC(=O)[C@@H]2CCCN2C(=O)[C@@H](N)CO)C(=O)N2CCC[C@H]2C(=O)N[C@@H](CC(=O)O)C(=O)N1)C(=O)N[C@H](C(=O)O)C(C)C", "note": "[P1C21, SPSWYCPDCDKRPLV] (HELM PEPTIDE1{S.P.S.W.Y.C.P.D.C.D.K.R.P.L.V}$PEPTIDE1,PEPTIDE1,6:R3-9:R3$$$V2.0; N-terminus and C-terminus assumed)", "values": [{"measurement": "Kd", "setting": "[1]; calculated as koff/kon ratio", "value": 8.24, "unit": "µM"}, {"measurement": "Koff", "setting": "[1]; [6]", "value": 0.0097, "unit": "s⁻¹"}, {"measurement": "Kon", "setting": "[1]; [6]", "value": 1183, "unit": "M⁻¹ s⁻¹"}, {"measurement": "Antibodies selectively reacting with Colo38 cells in sera", "setting": "[2]; KLH conjugate 50 μg/injection s.c., one week following the third immunization", "value": "detected"}, {"measurement": "Immunoprecipitation from Colo38 cell lysate by sera of mice sequentially immunized with peptide and Colo38 cells", "setting": "[2]; SDS-PAGE analysis", "value": "immunoprecipitated the characteristic HMW-MAA components"}, {"measurement": "Mean titer of antibodies reacting with Colo38 cells", "setting": "[2]; after third immunization, versus mice immunized with MB1194-208 peptide", "value": "low, although significantly (p<0.05) higher"}, {"measurement": "Reactivity with Colo38 cells of sera from mice immunized with peptide and boosted with HMW-MAA- lymphoid cells LG2", "setting": "[2]; binding assays and immunoprecipitation", "value": "lack of selective reactivity"}, {"measurement": "Titer of antibodies after boosting with HMW-MAA+ melanoma cells", "setting": "[2]; boost with irradiated Colo38 cells on day 132", "value": "markedly enhanced"}, {"measurement": "Flow cytometry staining of parental M14#5 cells by immune sera", "setting": "[2]; cells do not express HMW-MAA", "value": "did not stain the parental M14#5 cells"}, {"measurement": "Flow cytometry staining of M14#5/HMW-MAA cells by immune sera", "setting": "[2]; sera 1:60 dilution", "value": "stained M14#5/HMW-MAA cells"}, {"measurement": "Titer of antibodies reacting with melanoma cells following three additional boosters", "setting": "[2]; six peptide immunizations", "value": "did not change"}, {"measurement": "Reactivity of immobilized synthetic peptide with scFv C21 in ELISA", "setting": "[3]", "value": "reacted specifically with scFv C21"}, {"measurement": "DTH response: swelling of footpad injected with Colo38 cells versus LG2 cells", "setting": "[4]; mice immunized six times, cells injected day 132", "value": "significantly (p<0.05) higher swelling"}, {"measurement": "Persistence of footpad swelling", "setting": "[4]; mouse, in vivo", "value": 48, "unit": "h"}, {"measurement": "Inhibition of the binding of scFv C21 to HMW-MAA+ melanoma cells Colo38", "setting": "[5]", "value": "inhibited the binding of scFv C21 to HMW-MAA^+ cells in a dose dependent fashion"}]}
